Some results were stated once for a whole list of compounds, not compound by compound.
Assay: Determination of S from retention time shift Δ relative to P3 at two gradient slopes, nano-RP-HPLC MS of spiked tryptic digest
Format: physicochemical
Details: model peptide mixture (tryptic digest of bovine proteins), 0.75 and 0.1875% acetonitrile per minute gradients, formic acid, S from Δ vs. S curve of S-calibrating peptides
Experimental: Proteins and protein digestion. Tryptic digests of two different protein mixtures were utilized. The “test peptide mixture” contained human proteins: albumin, transferrin, fibrinogen. The “model peptide mixture” contained bovine proteins: albumin, transferrin, fibrinogen, catalase. Equimolar mixtures of the proteins were prepared, reduced with DTT, alkylated with iodoacetamide and digested with sequencing-grade modified trypsin (Promega, Madison, Wis.). Prior to nano-LC MS/MS analysis, mixtures were diluted with buffer A (0.1% formic acid in water) and spiked with the 6 standard peptides P1-P6^24 for test mixture and the set of 11 model peptides (described elsewhere^23) for a model mixture. All dilutions were performed to provide an injection of ˜100 fmole of each component into the nanoRP-HPLC MS system.
Chromatography. All chromatographic experiments were conducted at a controlled temperature of 22-23° C. […] The dead volume of the column and connecting tubings was determined by injecting a non-retained compound (water) and measuring the elution time of the negative peak at a 150 μL/min flow rate. Retention factors for isocratic elution were calculated using the formula: k=(tR−t0)/t0c; where tR is the retention time, t0 is the system (column and tubings) dead time, and t0c is the column dead time. […]

Row | Sequence | experimental S-value
1 | KPVTEAQSCHLAVAPNHAWSR (KPVTEAQSCHLAVAPNHAVVSR) [tryptic peptide of the model peptide mixture, 5 positively charged groups] | 49-50
2 | DGTRKPVTDAENCHLAR [tryptic peptide of the model peptide mixture, 5 positively charged groups] | 49-50
